In test [1] the target is T1, Rad9 (human (endogenous in HEK293)) (UniProt Q99638).
T1 sequence: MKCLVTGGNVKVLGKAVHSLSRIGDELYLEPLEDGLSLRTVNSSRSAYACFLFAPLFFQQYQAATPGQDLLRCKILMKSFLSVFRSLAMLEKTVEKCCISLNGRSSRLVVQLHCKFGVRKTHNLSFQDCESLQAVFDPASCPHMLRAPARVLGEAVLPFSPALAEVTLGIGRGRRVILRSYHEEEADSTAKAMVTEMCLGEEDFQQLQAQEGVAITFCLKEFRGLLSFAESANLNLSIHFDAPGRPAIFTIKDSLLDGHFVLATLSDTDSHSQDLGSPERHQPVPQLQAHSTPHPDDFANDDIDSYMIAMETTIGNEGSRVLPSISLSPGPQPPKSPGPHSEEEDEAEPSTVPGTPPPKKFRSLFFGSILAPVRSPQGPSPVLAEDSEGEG
Description: co-IP; lysates (1.5 mg; 1 % Triton X-100, 0.5 % Na-deoxycholate, 150 mM NaCl, Tris/HCl pH 8.0; sonicated, benzonase) of HEK293 cells stably expressing Wt or Mut (S457A) TLK1B, untreated or treated with HU; immunoprecipitated with anti-Rad9 antibody overnight at 4 °C, protein A/G Sepharose; blotted for Hus1 and WRN.

Test [2] deals with T2, flag-tagged Wt Rad9 (human) (UniProt Q99638).
T2 sequence: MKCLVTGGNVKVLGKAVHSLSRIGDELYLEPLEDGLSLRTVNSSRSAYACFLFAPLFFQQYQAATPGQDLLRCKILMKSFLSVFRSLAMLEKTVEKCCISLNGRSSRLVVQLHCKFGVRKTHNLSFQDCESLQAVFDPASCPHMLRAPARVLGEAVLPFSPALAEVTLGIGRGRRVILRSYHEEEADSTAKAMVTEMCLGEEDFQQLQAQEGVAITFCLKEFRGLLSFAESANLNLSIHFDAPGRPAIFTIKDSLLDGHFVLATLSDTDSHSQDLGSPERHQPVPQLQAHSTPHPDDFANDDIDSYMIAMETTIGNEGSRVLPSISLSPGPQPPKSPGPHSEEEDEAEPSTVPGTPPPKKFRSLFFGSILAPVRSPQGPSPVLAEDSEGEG
Description: co-IP; lysates of HEK293 c-18 cells stably overexpressing flag-tagged Wt or S328D Rad9, with or without HU; immunoprecipitated with flag antibody; blotted for Hus1 and WRN.

These are yes or no findings as the source states them, for the method shown. In cells and extracts the contact can be indirect. Some entries that bind do so weakly or less than the wild type. For some assays here: Where a sequence is shown, tags or fusion partners need not be part of it.

B1: Hus1 (protein, UniProt O60921 1-280)
chain: MKFRAKIVDGACLNHFTRISNMIAKLAKTCTLRISPDKLNFILCDKLANGGVSMWCELEQENFFNEFQMEGVSAENNEIYLELTSENLSRALKTAQNARALKIKLTNKHFPCLTVSVELLSMSSSSRIVTHDIPIKVIPRKLWKDLQEPVVPDPDVSIYLPVLKTMKSVVEKMKNISNHLVIEANLDGELNLKIETELVCVTTHFKDLGNPPLASESTHEDRNVEHMAEVHIDIRKLLQFLAGQQVNPTKALCNIVNNKMVHFDLLHEDVSLQYFIPALS
Take B1: the binding entry in test [1] and in test [2] was “binds” each time.

The record behind these values is paper PMC4746922.
